These are yes or no findings as the source states them, for the method shown. A result given as binding can be weak or reduced; the word gives no strength. For some of these results: Where a sequence is shown, tags or fusion partners need not be part of it. For some of these results: In cells and extracts the contact can be indirect.
Tests used:
[1] = target: T1, TAMRA-9J10Min peptide (5-TAMRA-GRRRN(p-Serine)N-acid) (Streptomyces avermitilis); assay: fluorescence polarisation; competition: unlabelled 9J10 peptide titrated against 10 nM TAMRA-p9J10Min bound to 1.5 μM His-14-3-3ε; 10 mM HEPES, 150 mM NaCl, 0.05% Tween; both purified
T1 sequence (peptide, 5-TAMRA on the N-terminus; phosphoserine at 6 (Ser94 of 9J10); C-terminal acid): GRRRNSN

[2] = target: C-terminally truncated 14-3-3ε (amino acids 1-232) (human); assay: crystal structure; 14-3-3ε (1-232) incubated with TAMRA-9J10 peptide at 1:2; 28% PEG 400, 0.1 M Hepes pH 7.5, 0.2 M calcium chloride; 3.16 Å; both purified
[3] = target: 6x His-14-3-3ε (full length human 14-3-3ε) (human); assay: STD-NMR; 100 μM 9J10 peptide and 10 μM 14-3-3ε in D2O, 298 K; also with 2% DMSO or CU7218; both purified
[4] = target: FLAG-tagged 14-3-3ε (human)

## 6x His-14-3-3ε (full length human 14-3-3ε)
[1]
  binding: binds

B1: TAMRA-9J10 peptide (5-TAMRA-…(p-Serine)N-acid) (peptide)
peptide: LNRTPGRRRNSN
modifications: 5-TAMRA on the N-terminus; phosphoserine at 11 (Ser94 of 9J10); C-terminal acid
[2]
  binding: binds

B2: Unlabelled 9J10 peptide (…(p-Serine)N-acid) (peptide)
peptide: LNRTPGRRRNSN
modifications: phosphoserine at 11 (Ser94 of 9J10); C-terminal acid
[3]
  binding: binds

B3: 14-3-3γ (endogenous) (protein, UniProt P61981 1-247)
chain: MVDREQLVQKARLAEQAERYDDMAAAMKNVTELNEPLSNEERNLLSVAYKNVVGARRSSWRVISSIEQKTSADGNEKKIEMVRAYREKIEKELEAVCQDVLSLLDNYLIKNCSETQYESKVFYLKMKGDYYRYLAEVATGEKRATVVESSEKAYSEAHEISKEHMQPTHPIRLGLALNYSVFYYEIQNAPEQACHLAKTAFDDAIAELDTLNEDSYKDSTLIMQLLRDNLTLWTSDQQDDDGGEGNN
[4]
  binding: binds
